Results are given in words; binding and its absence hold for the method and conditions named. Binding seen in cells or lysates may run through a third protein. These calls come from enrichment with a bait or labelling near it, and not all partners need be listed. Sequences can lack the tags named with a protein.
T1: His6-Gis1 (yeast (S. cerevisiae)) (UniProt Q03833)
T1 sequence: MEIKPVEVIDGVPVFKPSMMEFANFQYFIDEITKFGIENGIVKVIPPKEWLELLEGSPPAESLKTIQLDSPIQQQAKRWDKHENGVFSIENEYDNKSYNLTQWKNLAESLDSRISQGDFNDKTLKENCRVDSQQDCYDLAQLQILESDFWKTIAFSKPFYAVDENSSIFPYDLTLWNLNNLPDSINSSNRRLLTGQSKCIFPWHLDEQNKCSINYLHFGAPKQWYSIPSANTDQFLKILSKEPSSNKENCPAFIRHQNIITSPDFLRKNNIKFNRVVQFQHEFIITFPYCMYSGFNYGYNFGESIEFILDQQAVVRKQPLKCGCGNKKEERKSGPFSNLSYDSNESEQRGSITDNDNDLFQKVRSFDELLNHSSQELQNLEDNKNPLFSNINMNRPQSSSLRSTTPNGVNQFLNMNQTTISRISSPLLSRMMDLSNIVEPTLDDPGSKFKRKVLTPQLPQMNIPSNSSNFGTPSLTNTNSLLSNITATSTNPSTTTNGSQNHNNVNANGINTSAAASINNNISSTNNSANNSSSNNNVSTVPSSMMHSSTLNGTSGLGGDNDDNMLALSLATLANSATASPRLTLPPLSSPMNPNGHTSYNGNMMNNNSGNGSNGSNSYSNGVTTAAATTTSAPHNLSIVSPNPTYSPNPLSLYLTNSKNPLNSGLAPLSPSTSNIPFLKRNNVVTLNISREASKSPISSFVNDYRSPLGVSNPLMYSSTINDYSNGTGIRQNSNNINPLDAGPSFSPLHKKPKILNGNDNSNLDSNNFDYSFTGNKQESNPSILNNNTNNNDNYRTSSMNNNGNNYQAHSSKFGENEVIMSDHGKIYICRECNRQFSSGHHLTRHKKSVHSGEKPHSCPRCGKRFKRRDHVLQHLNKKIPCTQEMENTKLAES

B1: MRM1 (protein, UniProt P25270 21-412)
chain: QALKTRIKKKSSSFDKFFPQQSNSRKKQWETLNEDKASWFKRKYAHVHAREQDRAADPYGKKKAHVEKLKEIKNQAKLNQKSHKSKFQNKDIALKLMNDNPIFEYVYGTNSVYAALLNPSRNCHSRLLYHGTIPSKFLQIVDELKVTTELVDKHRLNLLTNYGVHNNIALETKPLQPVEIAYLGDMDTSSAALSIHELGFNNENIPHELPYGTKTDAKKFPLGLYLDEITDPHNIGAIIRSAYFLGVDFIVMSRRNCSPLTPVVSKTSSGALELLPIFYVDKPLEFFTKSQEMGGWTFITSHLANATSEKYTVGKTISMHDLNGLCNELPVVLVVGNESQGVRTNLKMRSDFFVEIPFGGIEKGNRAPEPIVDSLNVSVATALLIDNILTCK
B2: AIM6 (protein, UniProt Q07716 18-390)
chain: VCALFSSRGRNPSLTDWEKLKDQKISNIDNFGLTGQHLLEFFQENLPFLSFSEEKYRHKHVSLYYDVFKEYILRRASSKKCLPVDSAIAKLNKDVNPMPVHSHNDYWRKLPLFEGLAYGASSTEADVWNIDEKILAVGHNEAYLDPVELTLDKLYTGPLLEILDEVNCQDSDADRKNGVFFNSPETSLFFYIDFKSDDNELTYKLLMEQYFKSLIDSGYLTYYDMKKDEIIWRPVTVILTGNYPTSLDILDNGNDNGYFESSQRFAFLDAPLLSLEPKYSKLSVAATVSFSQLMKHCGSDHWKVSLRGRMDSNEISCAKSIIDGAHALKLKTRIWGAPTWPANLVETISRQIIHDLGSDLLNLDNLFMASSLI
B3: MSC3 (protein, UniProt Q05812 1-728)
chain: MVFGFTKRDRRVPDLSRYDYYYQNHEDYNKSPQLSAAAASAASAASPDRTNYSRSHSLVSHAPSIPRQRSSVKSPGRRLSTSSAAPPTSRAAAKQYSQKTYSLRSQRSGEYHLHPPGYTTNGSRMNSMTSGANVRRNYGKNKSTAGNNNDSRANSITVKTTQVTDPSGRTQSITKKTIRKINGYEYVETTTTTKNLVPLGDSQRHFDEFSENYMLQDDDILEEQASDNIHDIIEENETDNEKPYSPVSESHLQDDSELNVEKPDFPLGSYFHHKYSTDVMPLEEESSLSNFSDALDYIPPTHQTSSKYIHNKRKQASTTRRKKRPPAVKNAEAEAKKPLTEAEMYLKALEVAKRNVYHTDAASDNASAPLGSNKSRKSRMGQKMTLRSSSDSPTATANLVKSNVEVQPKRFTSSFFSRNTKSAPHEVHNHSVSTHFKSNKAVDPVPEPKSANTGLTDKEMYDQALKIAQARYYNSHGIQPEAVDNSTTAAKPRQVGVSHLGSTGSIPPNEQHYLGDSEIPVQSEVHEYEPIPLQKTKTTGSSKNKFKTMFDKVLQFSQENYGYQHKKEQGEQTPVTRNAEESFPAASISEGVTTAKPSSNEGVMTNPVVTDSPSPLQQQIDSTTASSNGQSQGNVPTSAVASTTRTRSPELQDNLKSSSSLLQDQTPQRQEDATDPTTSSTNELSAAEPTMVTSTHATKTIQAQTQDPPTKHKKSSFFTKLFKKKSSR
B4: NBA1 (protein, UniProt Q08229 1-501)
chain: MSEEREENGISRATLNTQRLSAMIDSLNNEKDDRLFPSPTTTRTMITEEKADQSDVFKPPSRLLRSPAGDVSLPPGDNRSSMISNYSGIIQEGVEVSYVVKNRQQTQERRTSKDSNSLYSLKEPVSKNELPSLPMLPSEATLTKHLSDNQSTKSNTNADEIVIKPVTNAKPVGRFNSNTSKKVEGRGSLKLLSSPLRQEKVMRSSIGSGNLASESGSSTYNTKFHQSIQEQLEEEEEGNVSDKLSIVSSVIPELYTTTNEAPKAINPIRSETNDYNPTIPPRSKDRPRSRLFIEEGDGEGDLLTEEILPTPVQPGGHYKNSSQISTVSEQKSESYYSAATSMPPEEETYLTRPLPSTPNEDSRVTSNLKRDDTLKAIHDRANHTSTSTNKQDDDMYEDIIEETPKKTKLKKDTKKKLNKKKSVKELRSFDIDTLNQLLSVTKGTLIGSEFAQLGMKIEEKRALERLVDSLSRLTADMVLDPDRYEEGLKRLDKATKALEGF
B5: OSH3 (protein, UniProt P38713 1-996)
chain: METIDIQNRSFVVRWVKCGRGDVINYQIKPLKKSIEVGIYKKLKSSVDDHASAVHIAPDTKTLLDYTTKSLLHKGSSSNIEEHHRRSSQHSHSSSNGSDNKRKERSYSSLSISGIQQQSQEIPLREKLSASGFTLVKRVGNVSGNTMVQGDLEVKDTDYYYAFILDNSSSKNAKKKILFNASVINGDNQSMISTRSTPPARPTALSRTSTQQDMLFRVGQGRYLQGYLLKKRRKRLQGFKKRFFTLDFRYGTLSYYLNDHNQTCRGEIVISLSSVSANKKDKIIIIDSGMEVWVLKATTKENWQSWVDALQTCFDDQFEDKDTSTLEENPDILDDDKEVINKSSPQDHDHLTPTATTKSALSHRQHTQKDMDDIYVPLPSESYATFSMNLRLIQQRLEQCKKDSLSYKPTTLHQRSEGLNGTHSSSSVFTNNRVSSFNHSSSGMTSSDSLASEEVPSNKTYIEHALYNQLADLEVFVSRFVTQGEVLFKDHQILCKKAKDTRVSLTSYLSENDEFFDAEEEISRGVIILPDTEDDINNIVEETPLLGKSDQNEFTKEVQLSGSEQIASSSVESYTTNDENHSRKHLKNRHKNRRRGHPHHQKTKSAQSSTETFTSKDLFALSYPKSVTRRNDIPEAAASPPSLLSFLRKNVGKDLSSIAMPVTSNEPISILQLISETFEYAPLLTKATQRPDPITFVSAFAISFLSIYRDKTRTLRKPFNPLLAETFELIREDMGFRLISEKVSHRPPVFAFFAEHLDWECSYTVTPSQKFWGKSIELNNEGILRLKFKTTGELFEWTQPTTILKNLIAGERYMEPVNEFEVHSSKGDKSHILFDKAGMFSGRSEGFKVSIIPPPSSNRKKETLAGKWTQSLANETTHETIWEVGDLVSNPKKKYGFTKFTANLNEITEIEKGNLPPTDSRLRPDIRAYEEGNVDKAEEWKLKLEQLQRERRNKGQDVEPKYFEKVSKNEWKYITGPKSYWERRKKHDWSDISQLW
B6: PBP4 (protein, UniProt Q07362 1-185)
chain: MTTTSTTSVDGRTSSTLKATLSASGPNSNGPTPAVLPQKPKLTGWAQAAAKALPRQQQQQQQARKDDSVAVQPANTKTKTIASTAPPANIKGSSTANGSSTNKKFKRANKQPYNREEVRSYMHKLFQSYTAGEKSHSMKTYKQVLSETASGRVSTATDWGTVSSSKNKNKKYGCLSDIAKVLRNQ
B7: PGA2 (protein, UniProt P53903 1-129)
chain: MSEVAETWVDTWMAKLVNYDYKHFIRLVIIVGGYLLLRNIASRELAKKQLAAQVEKDKRDKEEKRSKDLIDKPDDAATAETTSFGWGKKTRRRVKRQQELFENALEEAKRRNQGLDPDSDADIEELLEE
B8: PGK1 (protein, UniProt P00560 1-416)
chain: MSLSSKLSVQDLDLKDKRVFIRVDFNVPLDGKKITSNQRIVAALPTIKYVLEHHPRYVVLASHLGRPNGERNEKYSLAPVAKELQSLLGKDVTFLNDCVGPEVEAAVKASAPGSVILLENLRYHIEEEGSRKVDGQKVKASKEDVQKFRHELSSLADVYINDAFGTAHRAHSSMVGFDLPQRAAGFLLEKELKYFGKALENPTRPFLAILGGAKVADKIQLIDNLLDKVDSIIIGGGMAFTFKKVLENTEIGDSIFDKAGAEIVPKLMEKAKAKGVEVVLPVDFIIADAFSADANTKTVTDKEGIPAGWQGLDNGPESRKLFAATVAKAKTIVWNGPPGVFEFEKFAAGTKALLDEVVKSSAAGNTVIIGGGDTATVAKKYGVTDKISHVSTGGGASLELLEGKELPGVAFLSEKK
B9: PHO8 (protein, UniProt P11491 1-566)
chain: MMTHTLPSEQTRLVPGSDSSSRPKKRRISKRSKIIVSTVVCIGLLLVLVQLAFPSSFALRSASHKKKNVIFFVTDGMGPASLSMARSFNQHVNDLPIDDILTLDEHFIGSSRTRSSDSLVTDSAAGATAFACALKSYNGAIGVDPHHRPCGTVLEAAKLAGYLTGLVVTTRITDATPASFSSHVDYRWQEDLIATHQLGEYPLGRVVDLLMGGGRSHFYPQGEKASPYGHHGARKDGRDLIDEAQSNGWQYVGDRKNFDSLLKSHGENVTLPFLGLFADNDIPFEIDRDEKEYPSLKEQVKVALGALEKASNEDKDSNGFFLMVEGSRIDHAGHQNDPASQVREVLAFDEAFQYVLEFAENSDTETVLVSTSDHETGGLVTSRQVTASYPQYVWYPQVLANATHSGEFLKRKLVDFVHEHKGASSKIENFIKHEILEKDLGIYDYTDSDLETLIHLDDNANAIQDKLNDMVSFRAQIGWTTHGHSAVDVNIYAYANKKATWSYVLNNLQGNHENTEVGQFLENFLELNLNEVTDLIRDTKHTSDFDATEIASEVQHYDEYYHELTN
B10: POL4 (protein, UniProt P25615 1-582)
chain: MSLKGKFFAFLPNPNTSSNKFFKSILEKKGATIVSSIQNCLQSSRKEVVILIEDSFVDSDMHLTQKDIFQREAGLNDVDEFLGKIEQSGIQCVKTSCITKWVQNDKFAFQKDDLIKFQPSIIVISDNADDGQSSTDKESEISTDVESERNDDSNNKDMIQASKPLKRLLQGDKGRASLVTDKTKYKNNELIIGALKRLTKKYEIEGEKFRARSYRLAKQSMENCDFNVRSGEEAHTKLRNIGPSIAKKIQVILDTGVLPGLNDSVGLEDKLKYFKNCYGIGSEIAKRWNLLNFESFCVAAKKDPEEFVSDWTILFGWSYYDDWLCKMSRNECFTHLKKVQKALRGIDPECQVELQGSYNRGYSKCGDIDLLFFKPFCNDTTELAKIMETLCIKLYKDGYIHCFLQLTPNLEKLFLKRIVERFRTAKIVGYGERKRWYSSEIIKKFFMGVKLSPRELEELKEMKNDEGTLLIEEEEEEETKLKPIDQYMSLNAKDGNYCRRLDFFCCKWDELGAGRIHYTGSKEYNRWIRILAAQKGFKLTQHGLFRNNILLESFNERRIFELLNLKYAEPEHRNIEWEKKTA

Molecular target: T1, His6-Gis1 (yeast (S. cerevisiae))
Test: affinity purification with mass spectrometry; His6-Gis1 pre-bound to a Ni Sepharose 6 Fast Flow column; crude yeast extract (Δgis1 cells grown in air or under hypoxia, Δgis1Δhem1 cells at intermediate or high ALA) loaded, 4 °C, 2 h; eluted complexes separated by SDS-PAGE, bands excised, MS; only the target purified

Row | Binder | binding
1 | B1 | binds
2 | B2 | binds
3 | B3 | binds
4 | B4 | binds
5 | B5 | binds
6 | B6 | binds
7 | B7 | binds
8 | B8 | binds
9 | B9 | binds
10 | B10 | binds

Source: publication PMC7140707
